Our source for the binding values is paper PMC4288368.

Sequences of proteins named here, by UniProt entry; tags and fusion partners are left off.
UniProt Q00610: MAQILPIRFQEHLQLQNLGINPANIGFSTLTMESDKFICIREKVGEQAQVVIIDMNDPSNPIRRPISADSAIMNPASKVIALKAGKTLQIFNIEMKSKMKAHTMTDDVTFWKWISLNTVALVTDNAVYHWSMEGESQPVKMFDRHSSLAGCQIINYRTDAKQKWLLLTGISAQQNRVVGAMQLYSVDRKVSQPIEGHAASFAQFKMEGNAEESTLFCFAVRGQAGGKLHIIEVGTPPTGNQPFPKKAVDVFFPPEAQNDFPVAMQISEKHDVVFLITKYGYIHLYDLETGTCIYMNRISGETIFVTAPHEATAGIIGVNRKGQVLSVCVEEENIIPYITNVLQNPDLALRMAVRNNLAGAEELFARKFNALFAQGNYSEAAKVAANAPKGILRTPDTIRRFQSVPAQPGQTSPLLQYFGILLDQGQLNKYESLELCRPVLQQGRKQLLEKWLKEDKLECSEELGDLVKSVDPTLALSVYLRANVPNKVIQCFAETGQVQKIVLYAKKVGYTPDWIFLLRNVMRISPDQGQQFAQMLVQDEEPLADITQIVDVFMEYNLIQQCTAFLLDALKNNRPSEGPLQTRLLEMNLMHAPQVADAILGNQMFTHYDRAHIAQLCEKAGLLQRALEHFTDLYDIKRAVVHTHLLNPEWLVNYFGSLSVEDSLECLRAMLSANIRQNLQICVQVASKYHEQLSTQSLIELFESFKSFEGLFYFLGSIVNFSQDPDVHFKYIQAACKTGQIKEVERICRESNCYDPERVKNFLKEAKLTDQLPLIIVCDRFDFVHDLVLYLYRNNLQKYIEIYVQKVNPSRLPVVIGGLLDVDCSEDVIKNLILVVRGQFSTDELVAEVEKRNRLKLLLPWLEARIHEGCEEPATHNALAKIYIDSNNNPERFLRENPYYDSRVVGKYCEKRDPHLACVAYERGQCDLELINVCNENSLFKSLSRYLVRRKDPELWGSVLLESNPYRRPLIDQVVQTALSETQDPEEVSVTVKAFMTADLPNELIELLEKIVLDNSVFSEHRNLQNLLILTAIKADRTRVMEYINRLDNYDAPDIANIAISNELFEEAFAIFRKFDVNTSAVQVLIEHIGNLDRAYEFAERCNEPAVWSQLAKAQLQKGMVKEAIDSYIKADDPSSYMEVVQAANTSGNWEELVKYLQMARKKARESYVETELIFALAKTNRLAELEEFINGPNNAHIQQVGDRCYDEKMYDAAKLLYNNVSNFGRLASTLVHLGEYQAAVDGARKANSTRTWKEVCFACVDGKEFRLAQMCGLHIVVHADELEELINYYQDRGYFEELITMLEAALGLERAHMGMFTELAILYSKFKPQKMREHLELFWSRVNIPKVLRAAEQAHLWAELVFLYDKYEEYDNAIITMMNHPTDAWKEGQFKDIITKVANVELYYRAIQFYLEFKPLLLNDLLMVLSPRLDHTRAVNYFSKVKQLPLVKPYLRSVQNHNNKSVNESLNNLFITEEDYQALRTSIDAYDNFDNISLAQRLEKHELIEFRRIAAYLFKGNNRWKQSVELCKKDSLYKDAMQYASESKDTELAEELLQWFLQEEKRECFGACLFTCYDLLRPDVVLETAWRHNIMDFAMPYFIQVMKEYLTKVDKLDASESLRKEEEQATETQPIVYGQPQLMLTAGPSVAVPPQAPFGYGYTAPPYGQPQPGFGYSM
UniProt O95377: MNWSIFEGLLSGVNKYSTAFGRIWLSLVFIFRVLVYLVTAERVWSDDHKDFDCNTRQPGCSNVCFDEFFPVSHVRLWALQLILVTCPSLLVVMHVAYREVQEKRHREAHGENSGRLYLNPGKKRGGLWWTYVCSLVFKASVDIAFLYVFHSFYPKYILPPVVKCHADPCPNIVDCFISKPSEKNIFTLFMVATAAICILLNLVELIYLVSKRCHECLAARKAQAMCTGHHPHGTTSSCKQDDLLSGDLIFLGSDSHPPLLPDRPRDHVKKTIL

Assay [1] concerns the target clathrin heavy chain (human (endogenous in H1299)) (UniProt Q00610). The assay can be described thus: co-IP; lysates of Cx31.1-EGFP-H1299 cells or H1299 cells stably expressing EGFP; immunoprecipitated with anti-GFP and blotted for clathrin heavy chain, and reciprocally immunoprecipitated with anti-clathrin heavy chain and blotted for GFP; buffer 50 mM Tris-HCl pH 7.4, 150 mM NaCl, 1% NP-40, 0.25% sodium deoxycholate, 1 mM EDTA; 4°C.

For another assay, the target named is Connexin 31.1-EGFP (UniProt O95377). The assay is described as above.

These are yes or no findings as the source states them, for the method shown. In cells and extracts the contact can be indirect. Some entries that bind do so weakly or less than the wild type.

Consider “Connexin 31.1-EGFP (from UniProt O95377 1-273)”, for which the binding entry in assay [1] is “binds”.
For “clathrin heavy chain (from UniProt Q00610 1-1675)”, the binding entry in the assay with Connexin 31.1-EGFP is given as “binds”.
